No constants are given. Whether binding was seen depends on the method and setting. Binding seen in cells or lysates may run through a third protein. Binding can be weak; no strength is given. Tags and fused reporters may be left off the sequences shown.
What was measured:
GST-HDAC3 [1] = assay: conclusion from the GST pull-down of FIG. 4E
GST-HDAC3 [2] = assay: GST pull-down from 293T lysates co-expressing GST-HDAC3 and Flag-sLZIP, immunoblot (FIG. 4E)
GST-HDAC3 [3] = assay: GST pull-down from 293T lysates co-expressing GST-HDAC3 and Flag-sLZIP, with or without 10 nM RZD for 24 h (FIG. 5D)

Measured: binding

B1: Flag-sLZIP (protein, not shown: small tags and cut ends)
chain: MELELDAGDQDLLAFLLEESGDLGTAPDEAVRAPLDWALPLSEVPSDWEVDDLLCSLLSPPASLNILSSSNPCLVHHDHTYSLPRETVSMDLESESCRKEGTQMTPQHMEELAEQEIARLVLTDEEKSLLEKEGLILPETLPLTKTEEQILKRVRRKIRNKRSAQESRRKKKVYVGGLESRVLKYTAQNMELQNKVQLLEEQNLSLLDQLRKLQAMVIEISNKTSSSSMYSSDTRGSLPAEHGVLSRQLRALPSEDPYQLELPALQSEVPKDSTHQWLDGSDCVLQAPGNTSCLLHYMPQAPSAEPPLEWPFPDLFSEPLCRGPILPLQANLTRKGGWLPTGSPSVILQDRYSG
binds: GST-HDAC3 [1] | GST-HDAC3 [2] | GST-HDAC3 [3]
